Laboratory results as given in article PMC8140133.
Results are given in words; binding and its absence hold for the method and conditions named. In cells and extracts the contact can be indirect. Some binding calls cover weakened binding; strength is not graded here.

Chains of the proteins cited; added tags and fusions are not shown.
UniProt Q8TD26: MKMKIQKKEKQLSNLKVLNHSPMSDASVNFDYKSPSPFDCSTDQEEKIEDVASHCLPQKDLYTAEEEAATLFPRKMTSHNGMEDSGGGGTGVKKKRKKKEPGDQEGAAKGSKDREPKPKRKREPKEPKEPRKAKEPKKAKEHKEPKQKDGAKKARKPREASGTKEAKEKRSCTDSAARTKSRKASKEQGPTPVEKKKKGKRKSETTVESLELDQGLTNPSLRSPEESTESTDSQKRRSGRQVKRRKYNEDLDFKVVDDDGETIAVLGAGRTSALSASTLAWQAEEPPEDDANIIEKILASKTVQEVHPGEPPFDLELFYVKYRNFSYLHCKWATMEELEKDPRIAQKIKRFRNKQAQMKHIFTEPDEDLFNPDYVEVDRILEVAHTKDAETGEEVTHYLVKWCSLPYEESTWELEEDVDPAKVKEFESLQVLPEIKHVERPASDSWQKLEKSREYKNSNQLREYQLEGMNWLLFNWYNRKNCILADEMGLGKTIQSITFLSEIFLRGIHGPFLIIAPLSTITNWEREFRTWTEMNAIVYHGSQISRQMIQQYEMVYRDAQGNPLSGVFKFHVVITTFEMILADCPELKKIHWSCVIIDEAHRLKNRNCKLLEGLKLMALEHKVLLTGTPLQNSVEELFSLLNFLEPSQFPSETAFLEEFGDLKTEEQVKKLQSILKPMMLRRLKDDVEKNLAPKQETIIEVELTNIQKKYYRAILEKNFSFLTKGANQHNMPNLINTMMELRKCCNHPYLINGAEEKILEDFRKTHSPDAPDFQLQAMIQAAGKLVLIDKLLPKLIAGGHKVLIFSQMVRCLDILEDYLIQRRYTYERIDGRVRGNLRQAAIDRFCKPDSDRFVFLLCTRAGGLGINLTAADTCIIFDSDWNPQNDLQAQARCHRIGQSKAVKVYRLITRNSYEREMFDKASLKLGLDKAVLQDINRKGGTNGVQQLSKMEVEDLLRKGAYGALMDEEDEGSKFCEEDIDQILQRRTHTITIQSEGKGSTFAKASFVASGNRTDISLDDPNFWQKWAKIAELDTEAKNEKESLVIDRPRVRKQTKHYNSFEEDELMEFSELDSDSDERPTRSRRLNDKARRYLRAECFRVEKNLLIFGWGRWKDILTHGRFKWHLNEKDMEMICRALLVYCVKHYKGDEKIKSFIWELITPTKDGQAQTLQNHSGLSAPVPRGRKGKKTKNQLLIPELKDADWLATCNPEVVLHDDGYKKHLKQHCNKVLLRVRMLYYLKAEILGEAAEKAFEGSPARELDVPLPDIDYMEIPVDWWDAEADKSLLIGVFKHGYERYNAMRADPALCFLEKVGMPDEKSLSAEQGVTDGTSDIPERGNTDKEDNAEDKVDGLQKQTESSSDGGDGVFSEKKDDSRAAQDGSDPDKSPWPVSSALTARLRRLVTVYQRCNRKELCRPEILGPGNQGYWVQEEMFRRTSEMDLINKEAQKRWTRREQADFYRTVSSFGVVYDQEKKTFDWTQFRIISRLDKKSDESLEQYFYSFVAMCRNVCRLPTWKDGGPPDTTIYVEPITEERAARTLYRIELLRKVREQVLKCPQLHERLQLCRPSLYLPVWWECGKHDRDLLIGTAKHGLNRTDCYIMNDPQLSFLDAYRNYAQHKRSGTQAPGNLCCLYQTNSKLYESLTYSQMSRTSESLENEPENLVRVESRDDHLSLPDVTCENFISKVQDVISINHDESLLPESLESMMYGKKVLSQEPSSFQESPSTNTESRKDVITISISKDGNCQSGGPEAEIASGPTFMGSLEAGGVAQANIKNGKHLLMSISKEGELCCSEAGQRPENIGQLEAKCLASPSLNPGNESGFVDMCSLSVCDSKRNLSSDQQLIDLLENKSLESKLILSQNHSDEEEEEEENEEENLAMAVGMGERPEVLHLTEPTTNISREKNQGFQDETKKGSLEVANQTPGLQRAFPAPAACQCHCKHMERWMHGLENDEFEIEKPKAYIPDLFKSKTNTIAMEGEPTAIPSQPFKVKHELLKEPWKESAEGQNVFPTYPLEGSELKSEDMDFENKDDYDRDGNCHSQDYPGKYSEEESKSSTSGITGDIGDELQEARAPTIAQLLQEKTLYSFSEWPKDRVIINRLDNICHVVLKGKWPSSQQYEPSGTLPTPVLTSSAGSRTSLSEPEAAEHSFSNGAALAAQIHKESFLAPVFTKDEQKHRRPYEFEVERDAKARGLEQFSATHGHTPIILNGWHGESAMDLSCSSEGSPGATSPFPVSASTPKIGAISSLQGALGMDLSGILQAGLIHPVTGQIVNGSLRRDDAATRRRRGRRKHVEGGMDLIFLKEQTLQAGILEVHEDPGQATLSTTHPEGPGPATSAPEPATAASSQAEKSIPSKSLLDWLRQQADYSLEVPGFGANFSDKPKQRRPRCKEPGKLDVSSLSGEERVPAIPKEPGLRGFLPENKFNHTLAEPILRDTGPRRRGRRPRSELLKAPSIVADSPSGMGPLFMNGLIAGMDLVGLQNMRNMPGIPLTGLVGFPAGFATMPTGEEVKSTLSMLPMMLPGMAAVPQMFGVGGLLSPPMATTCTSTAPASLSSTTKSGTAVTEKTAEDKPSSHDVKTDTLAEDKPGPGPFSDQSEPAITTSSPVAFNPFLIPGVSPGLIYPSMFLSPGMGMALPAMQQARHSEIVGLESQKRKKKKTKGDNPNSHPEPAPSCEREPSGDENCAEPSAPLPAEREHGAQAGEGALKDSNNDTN
UniProt Q92922: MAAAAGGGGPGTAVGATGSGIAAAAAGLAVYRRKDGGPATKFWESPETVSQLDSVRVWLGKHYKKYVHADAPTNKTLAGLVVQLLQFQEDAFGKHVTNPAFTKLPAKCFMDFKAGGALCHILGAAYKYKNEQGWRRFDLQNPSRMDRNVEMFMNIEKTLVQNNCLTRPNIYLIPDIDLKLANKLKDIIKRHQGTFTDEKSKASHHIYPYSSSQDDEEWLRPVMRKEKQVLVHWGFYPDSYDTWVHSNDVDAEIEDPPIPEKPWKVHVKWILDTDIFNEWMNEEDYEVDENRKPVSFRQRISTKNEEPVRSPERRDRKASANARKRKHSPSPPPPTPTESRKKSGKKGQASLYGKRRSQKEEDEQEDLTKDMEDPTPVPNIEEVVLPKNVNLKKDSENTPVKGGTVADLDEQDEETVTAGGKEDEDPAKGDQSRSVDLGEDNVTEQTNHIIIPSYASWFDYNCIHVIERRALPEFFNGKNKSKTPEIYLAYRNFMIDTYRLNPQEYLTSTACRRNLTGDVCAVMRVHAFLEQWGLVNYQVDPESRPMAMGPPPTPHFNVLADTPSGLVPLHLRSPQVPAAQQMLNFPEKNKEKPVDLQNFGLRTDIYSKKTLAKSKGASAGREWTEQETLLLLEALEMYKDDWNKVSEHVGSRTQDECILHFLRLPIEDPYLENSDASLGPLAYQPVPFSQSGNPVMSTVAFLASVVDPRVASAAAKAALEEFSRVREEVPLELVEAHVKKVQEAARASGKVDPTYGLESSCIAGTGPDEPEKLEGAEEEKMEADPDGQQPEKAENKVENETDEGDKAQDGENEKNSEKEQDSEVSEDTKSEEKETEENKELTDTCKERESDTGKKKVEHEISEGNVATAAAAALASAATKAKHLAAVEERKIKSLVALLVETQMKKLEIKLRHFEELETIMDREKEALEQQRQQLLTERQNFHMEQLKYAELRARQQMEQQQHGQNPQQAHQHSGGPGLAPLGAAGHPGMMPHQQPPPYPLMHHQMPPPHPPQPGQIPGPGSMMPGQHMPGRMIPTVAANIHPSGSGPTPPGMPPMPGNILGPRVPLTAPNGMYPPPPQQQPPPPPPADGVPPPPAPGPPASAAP

Target: full-length wild-type HA-tagged CHD6 (human) (UniProt Q8TD26)
Assay: co-IP; anti-HA immunoprecipitation of overexpressed wild-type or mutant HA-CHD6 from iPSCs, western blot for SMARCC1

Q: Which binding does the source give for “SMARCC1 (BAF155) (from UniProt Q92922 1-1105)” here?
A: binds
